PubChem BioAssay AID504786 – Drosophila RNAi Screening Center – 2011

- Purpose: 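Fly genes required for HIF-dependent transcription when hypoxia is mimicked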 (primary screen)
- Cells: Drosophila S2 cells with a stable HIF luciferase reporter
- Knock-down reagent: long dsRNA against Drosophila genes, about 0.2 µg dsRNA per well of a 384-well plate
- Duration: three days of knock-down, then 20 h of DFO before reading
- Challenge: desferrioxamine (DFO) at 100 µM, an iron chelator that mimics hypoxia, for 20 h
- Detection: 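Firefly luciferase driven by the mouse ldh-a hypoxia-response element, measured after 20 h of 100 µM DFO; z-scores per plate, higher means more signal lost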
- Direction: z-score: higher = stronger loss of HIF reporter signal
In all, the deposit lists about 21,000 reagents; below is an unselected part of those that have a named target and a result. 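Primary screen; positive scores mean lost reporter signal, so the sign may be inverted from the usual convention.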 Names joined by + are all predicted targets of the reagent. Reagent sequences are not shown.

predicted target	dsRNA	z-score, replicate 1	z-score, replicate 2
Cep89	DRSC07110	-0.2	-0.3
Cyp9b2	DRSC07390	-0.3	-0.5
Papst2	DRSC10924	-0.3	-0.3
spir	DRSC03619	-0.3	-0.3
Arl8	DRSC16334	-0.3	-0.4
CG10097 + CG10096	DRSC14189	-0.3	-0.1
CG10097 + CG10096	DRSC14190	-0.3	-0.6
PNPase	DRSC14304	-0.3	0.1
CG7634	DRSC11843	-0.2	-0.2
mrt	DRSC15484	0	-0.5
Rpp30	DRSC00320	-0.3	0.1
sas	DRSC12631	0.2	0.5
Opbp	DRSC04966	-0.1	-0.2
Ir76b	DRSC10831	-0.3	-0.6
CG12320	DRSC14498	-0.2	0.1
Nop17l	DRSC06556	-0.4	-0.3
CG2217 + CG42740	DRSC14141	-0.4	-0.4
Rassf	DRSC15612	-0.4	-0.6
Tet	DRSC08550	-0.2	-0.1
CG33453	DRSC05782	-0.2	-0.1
GstE2	DRSC06672	-0.2	-0.3
CG3287 (retired record)	DRSC04991	-0.3	-0.4
CG14743	DRSC06479	-0.3	-0.4
CG8079	DRSC07070	-0.3	-0.3
CG8079	DRSC07071	0.1	0.3
CG8547	DRSC07211	-0.4	-0.6
CG9143	DRSC07338	-0.2	-0.3
yellow-c + CIAPIN1	DRSC01898	-0.2	-0.1
Obp59a	DRSC04160	-0.3	-0.3
CG34029	DRSC03909	0.3	-0.5
Mrp5	DRSC15597	-0.7	0
Mrp5	DRSC15598	-0.8	-0.2
Rh4	DRSC11268	-0.3	0
a	DRSC04667	1.9	2.3
a	DRSC04668	-0.3	-0.2

Ordered by “z-score, replicate 2” (high to low): some entries from above.
predicted target	dsRNA	z-score, replicate 1	z-score, replicate 2
Papst2	DRSC10924	-0.3	-0.3
spir	DRSC03619	-0.3	-0.3
